PubChem BioAssay AID493246, Drosophila RNAi Screening Center – 2011
The screen tested about 21,000 reagents; below is an unselected part of those with a known target gene and a result. In the full data, 429 (2%) were called active. 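Values are raw and not normalised between plates; calls rest on per-plate z-scores that were not deposited.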 Entries without a mark were called inactive. Reagents against one gene are numbered here. Names joined by + are all predicted targets of the reagent. Not given: the amount of reagent, the time to read-out.

Screen: 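Genes fly cells need to grow and stay alive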 (primary screen)
System: Drosophila Kc and S2R+ cells
Reagents: long dsRNA against Drosophila genes
Detection: 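Raw, unnormalised count of remaining cells in each well; per-plate z-scores of cell number underlie the calls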
Scale: Kc cell number and S2R+ cell number: higher = more cells remaining
Rule for the call: 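Counted as a hit if cell number falls by a z-score of at least 3 within its plate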

gene knocked down	reagent no.	Kc cell number, rep 1	Kc cell number, rep 2	S2R+ cell number, rep 1	S2R+ cell number, rep 2
kek2 (GeneID 34582)	1	1.70e6	1.80e6	1.41e6	1.51e6
CG7322 (GeneID 32880)	1	1.51e6	1.54e6	1.06e6	1.19e6
CG17261 (GeneID 33522)	1	1.52e6	1.38e6	1.00e6	1.12e6
Atet (GeneID 33636)	1	1.62e6	1.50e6	1.09e6	1.28e6
Rbp9 (GeneID 33498)	1	1.60e6	1.56e6	1.12e6	1.20e6
Rbp9 (GeneID 33498)	2	1.35e6	1.49e6	9.49e5	1.05e6
plh (GeneID 40615)	1	1.80e6	1.76e6	1.35e6	1.46e6
Gr93a (GeneID 42568)	1	1.20e6	1.35e6	9.90e5	1.13e6
Polr3B (GeneID 36289)	1	1.26e6	1.40e6	1.09e6	1.16e6
Ipk1 (GeneID 37360)	1	1.42e6	1.48e6	1.16e6	1.20e6
Ipk1 (GeneID 37360)	2	1.52e6	1.60e6	1.31e6	4.12e5
Ipk1 (GeneID 37360)	3	1.52e6	1.63e6	1.32e6	3.84e5
CheB98a (GeneID 50092)	1	1.57e6	1.62e6	1.01e6	1.21e6
Zip71B (GeneID 39626)	1	1.31e6	1.39e6	1.26e6	1.35e6
wuc (GeneID 36401)	1	1.58e6	1.62e6	1.31e6	1.45e6
CG7692 (GeneID 39934)	1	1.61e6	1.47e6	1.21e6	1.30e6
CCT6 (GeneID 32518)	1	5.15e5		8.97e5	
CG46491 (GeneID 36929)	1	1.31e6	1.31e6	8.88e5	9.19e5
CG46491 (GeneID 36929)	2	1.49e6	1.57e6	1.15e6	1.24e6
Acyp (GeneID 34807)	1	1.65e6	1.68e6	1.35e6	1.46e6
MstProx (GeneID 40890)	1	1.42e6	1.48e6	1.10e6	1.28e6
MstProx (GeneID 40890)	2	1.58e6	1.75e6	1.32e6	1.44e6
CG13390 (GeneID 34154)	1	1.44e6	1.59e6	1.22e6	1.34e6
Rab9Db + Rab9D + Rab9E	1	1.15e6	1.39e6	1.12e6	1.12e6
Ccdc58 + CG34116	1	1.43e6	1.44e6	1.32e6	1.36e6
CG10182 (GeneID 42780)	1	1.70e6	1.68e6	9.32e5	1.09e6
fry (GeneID 39122)	1	1.58e6	1.56e6	1.19e6	1.33e6
fry (GeneID 39122)	2	1.41e6	1.37e6	1.31e6	1.36e6
fry (GeneID 39122)	3	1.43e6	1.50e6	1.42e6	1.50e6
fry (GeneID 39122)	4	1.43e6	1.55e6	1.30e6	1.25e6
CG4250 (GeneID 37599)	1	1.64e6	1.73e6	1.30e6	1.37e6
kairos (GeneID 32815)	1	1.62e6	1.61e6	1.08e6	1.21e6
Atg8a (GeneID 32001)	1	1.53e6	1.49e6	1.02e6	1.07e6
CG10175 (GeneID 42773)	1	1.01e6	1.21e6	1.04e6	1.06e6
CG10175 (GeneID 42773)	2	1.42e6	1.38e6	1.08e6	1.13e6
dpr5 (GeneID 41381)	1	1.43e6	1.42e6	1.26e6	1.27e6
CG17658 (GeneID 37793)	1	1.62e6	1.72e6	1.38e6	1.52e6
CG8100 (GeneID 39565)	1	1.70e6	1.75e6	1.20e6	1.30e6
CG9512 (GeneID 32419)	1	5.71e5		8.34e5	
Ir7f (GeneID 7354418)	1	1.51e6	1.49e6	1.04e6	1.12e6
bai (GeneID 42996)	1	1.46e6	1.47e6	9.75e5	1.04e6
MTPAP (GeneID 31081)	1	1.44e6	1.47e6	9.96e5	1.10e6
CG14435 (GeneID 31628)	1	1.26e6	1.39e6	9.29e5	9.51e5
CG31128 (GeneID 318601)	1	1.21e6	1.56e6	1.09e6	1.14e6
BORCS6 (GeneID 38068)	1	1.22e6	1.31e6	1.09e6	1.28e6
tomboy20 (GeneID 41285)	1	1.42e6	1.56e6	1.35e6	1.44e6
Tace (GeneID 43558)	1	5.31e5		8.24e5	
Cdk4 (GeneID 36854)	1	1.33e6	1.39e6	7.51e5	8.31e5
CG17110 (GeneID 42729)	1	1.39e6	1.44e6	9.51e5	1.07e6
l(3)mbn (GeneID 38701)	1	1.75e6	1.64e6	1.07e6	1.25e6
Octbeta2R (GeneID 41549)	1	1.42e6	1.48e6	1.40e6	1.45e6
Octbeta2R (GeneID 41549)	2	1.41e6	1.44e6	1.31e6	1.39e6
CG10730 (GeneID 35291)	1	1.67e6	1.83e6	1.42e6	3.50e5
Tlk (GeneID 318206)	1	1.20e6	1.28e6	7.41e5	8.68e5
Tlk (GeneID 318206)	2	1.07e6	1.20e6	6.35e5	7.62e5
DIP-theta (GeneID 33795)	1	1.34e6	1.27e6	9.67e5	1.13e6
DIP-theta (GeneID 33795)	2	1.53e6	1.54e6	1.22e6	1.38e6
DIP-theta (GeneID 33795)	3	1.51e6	1.43e6	1.15e6	1.30e6
CG4836 (GeneID 42387)	1	1.51e6	1.50e6	1.08e6	1.18e6
